Experimental data: PubChem BioAssay AID445 (National Center for Advancing Translational Sciences (NCATS), 2006)
This is one part of the list. Shown are side measurements of this screen, not its main read-out; they come without a call. The list favours compounds with an active or inconclusive main result. Potencies come from curve fits of mixed quality, noted in brackets.

assay: IkB Signaling; details: ABC-DLBCL IkBa-CBG/CBR dual luciferase ratio (green luciferase fused to IkBa over red control in OCI-Ly3 lymphoma cells), 4 h; measured here: control luc red channel unless noted
Procedure, shortened: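 Curves were fitted separately to fusion (green), unfused (red) and ratio luminescence, then classed by r2, magnitude and activity. Cells: OCI-Ly3, 4 h compound plus doxycycline at 37C; 10 uM MG-132 defined full response.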

SMILES	AC50
Cc1ccc(C(=O)N2CCc3cc(CNC(=O)c4ccccc4F)ccc32)cc1	25.1 µM [falling, single point]
COc1cccc(OC)c1OCCNC[C@@H]1COc2ccccc2O1	39.8 µM [falling, single point]
COc1cc(Cl)c(C)cc1NC(=O)Cn1cnc2sc(C)c(S(=O)(=O)N3CCCCC3)c2c1=O	12.6 µM [falling, partial curve]
CN(CC(=O)NCc1ccc(Cl)cc1)S(=O)(=O)c1ccc2c(c1)c(=O)n(C)c(=O)n2C	7.94 µM [falling, single point]
CCOc1ccccc1NC(=O)Cn1c(=O)n(-c2ccc(C)c(C)c2)c(=O)c2c(C)c(C(=O)N(C)C)sc21	3.98 µM [rising, single point]
CC(Nc1ncnc2c1cnn2-c1cccc(Cl)c1)c1ccccc1 (stereo not given)	10 µM [falling, partial curve]
COc1cccc(-c2nnc(SCC(=O)N3CCc4ccccc43)o2)c1	0.0158 µM [falling, full curve]
COc1ccc(C2CC(=O)N(Cc3cccc(C)c3)c3c2c(C)nn3-c2nc(C)cc(C)n2)c(OC)c1 (stereo not given)	12.6 µM [falling, partial curve]
COC(=O)c1sc2cccc(F)c2c1S(=O)(=O)NCc1ccc(F)cc1	0.794 µM [falling, full curve]
CCOC(=O)c1cnc2c(Cl)c(Cl)ccc2c1Nc1ccc(N(C)C)cc1	15.8 µM [falling, partial curve]
Cc1ccccc1-n1c(=O)c2ccccc2n(Cc2ccc(F)cc2)c1=O	20 µM [falling, single point]
O=C(Nc1ccc(F)cc1)c1ncn(-c2ccccc2)n1	0.501 µM [falling, full curve]
COc1ccc(CNC(=O)Cc2nn(C)c(=O)c3ccccc23)cc1	12.6 µM [falling, partial curve]
CCOC(=O)c1ccccc1NC(=O)CN(c1cc(C(F)(F)F)ccc1Cl)S(C)(=O)=O	25.1 µM [falling, single point]
Cc1ccc2nc(NC(=O)C3CCCN(S(=O)(=O)c4cccc5nonc45)C3)sc2c1 (stereo not given)	2.51 µM [falling, full curve]
CCCCSCCCNC(=O)c1cn(CC)c2ccc(S(=O)(=O)N(C)C3CCCCC3)cc2c1=O	25.1 µM [falling, single point]
c1ccc(-c2nc(NCc3ccco3)c3ccccc3n2)nc1	12.6 µM [falling, partial curve]
Cc1ccc(CCNC(=O)CCS(=O)(=O)c2ccc3c(c2)oc(=O)n3C)cc1	1.26 µM [falling, full curve, poor fit]
Cc1[nH]c(=O)[nH]c(=O)c1NC(=O)CSc1ncccc1-c1nc2ccccc2[nH]1	12.6 µM [falling, partial curve]
Cc1c(Cl)cccc1NC(=O)C1CCCN(C(=O)c2cnn(-c3ccccc3)c2-n2cccc2)C1 (stereo not given)	25.1 µM [falling, partial curve]

SMILES	AC50
O=C(CN1C(=O)COc2ccc(S(=O)(=O)N3CCOCC3)cc21)Nc1ccc(F)c(Cl)c1	39.8 µM [falling, single point]
O=C(NCCc1ccc(Cl)cc1)C(=O)NCC(c1ccc2c(c1)OCO2)N1CCOCC1 (stereo not given)	25.1 µM [rising, partial curve]
Cc1cc(C)n(-c2nc3ccccc3nc2N2CCCCCC2)n1	20 µM [falling, partial curve]
O=C(Nc1nnc(Cc2ccccc2)s1)c1cccs1	25.1 µM [falling, single point]
O=C(Nc1cc(C(F)(F)F)ccc1Cl)c1cc(-c2cccs2)nc2ccccc12	2 µM [falling, full curve, poor fit]
Cc1cc(C)c(S(=O)(=O)NCCc2sc(-c3cccnc3)nc2C)c(C)c1	5.01 µM [rising, full curve]
O=C1CN(CC(=O)N2CCCCC2)c2ccccc2O1	1.26 µM [falling, full curve]
Cc1cc(S(=O)(=O)Nc2cc3c(cc2Cl)n(C)c(=O)c(=O)n3C)ccc1F	39.8 µM [falling, single point]
COc1ccc(S(=O)(=O)NCC(c2cccnc2)N2CCN(c3ccccc3OC)CC2)cc1C (stereo not given)	12.6 µM [falling, partial curve]
CCOC(=O)c1cc(-c2ccc(OC)cc2)n(CCC(=O)NCc2ccccc2OC)c1C	25.1 µM [falling, single point]
Cc1ccsc1CN(Cc1ccco1)C(=O)c1ccc(Cl)cc1	31.6 µM [falling, single point]
COc1ccc(S(=O)(=O)N(Cc2ccccc2)Cc2nc(-c3ccccc3)no2)cc1	12.6 µM [falling, partial curve]
CCOC(=O)C1=C(CS(=O)(=O)c2ccc(C(C)(C)C)cc2)NC(=O)NC1c1cccc(OC)c1 (stereo not given)	39.8 µM [falling, single point]
Cc1cccc(NC(=O)CSc2nnc3[nH]c(=O)cc(C)n23)c1C	3.98 µM [rising, single point]
O=C(NCc1cccnc1)c1noc2c1CCCC2	3.98 µM [falling, partial curve]
O=C(CSc1nnc(-c2ccc(F)cc2)o1)Nc1ccc(S(=O)(=O)N2CCCC2)cc1	12.6 µM [falling, partial curve]
Cc1cc(S(=O)(=O)Nc2cc3c(cc2NCc2ccccc2)n(C)c(=O)n3C)ccc1F	31.6 µM [falling, partial curve]
O=C(CSCc1ccc(F)cc1)N1CCc2c([nH]c3ccccc23)C1c1ccc(F)cc1 (stereo not given)	15.8 µM [falling, partial curve]
Cc1c(C(=O)Nc2cccc(C(F)(F)F)c2)oc2ccc(S(=O)(=O)N3CCC4(CC3)OCCO4)cc12	15.8 µM [falling, partial curve]
Cc1ccc2c(c1)N(C(=O)CCC(=O)Nc1ccc(F)cc1F)CC(C)O2 (stereo not given)	12.6 µM [falling, partial curve]

Another view of two compounds above:
SMILES | AC50
Cc1[nH]c(=O)[nH]c(=O)c1NC(=O)CSc1ncccc1-c1nc2ccccc2[nH]1 | 12.6 µM [falling, partial curve]
Cc1c(Cl)cccc1NC(=O)C1CCCN(C(=O)c2cnn(-c3ccccc3)c2-n2cccc2)C1 (stereo not given) | 25.1 µM [falling, partial curve]
